Assay results from patent publication US20110229560A1.
Results are given in words; binding and its absence hold for the method and conditions named. Binding seen in cells or lysates may run through a third protein. Some entries that bind do so weakly or less than the wild type. Sequences can lack the tags named with a protein.

The chains behind the UniProt entries cited, without tags or fusion partners. Where a name states a change or a piece, a line headed by the entry shows the natural chain unless it says otherwise.
UniProt Q86WI3: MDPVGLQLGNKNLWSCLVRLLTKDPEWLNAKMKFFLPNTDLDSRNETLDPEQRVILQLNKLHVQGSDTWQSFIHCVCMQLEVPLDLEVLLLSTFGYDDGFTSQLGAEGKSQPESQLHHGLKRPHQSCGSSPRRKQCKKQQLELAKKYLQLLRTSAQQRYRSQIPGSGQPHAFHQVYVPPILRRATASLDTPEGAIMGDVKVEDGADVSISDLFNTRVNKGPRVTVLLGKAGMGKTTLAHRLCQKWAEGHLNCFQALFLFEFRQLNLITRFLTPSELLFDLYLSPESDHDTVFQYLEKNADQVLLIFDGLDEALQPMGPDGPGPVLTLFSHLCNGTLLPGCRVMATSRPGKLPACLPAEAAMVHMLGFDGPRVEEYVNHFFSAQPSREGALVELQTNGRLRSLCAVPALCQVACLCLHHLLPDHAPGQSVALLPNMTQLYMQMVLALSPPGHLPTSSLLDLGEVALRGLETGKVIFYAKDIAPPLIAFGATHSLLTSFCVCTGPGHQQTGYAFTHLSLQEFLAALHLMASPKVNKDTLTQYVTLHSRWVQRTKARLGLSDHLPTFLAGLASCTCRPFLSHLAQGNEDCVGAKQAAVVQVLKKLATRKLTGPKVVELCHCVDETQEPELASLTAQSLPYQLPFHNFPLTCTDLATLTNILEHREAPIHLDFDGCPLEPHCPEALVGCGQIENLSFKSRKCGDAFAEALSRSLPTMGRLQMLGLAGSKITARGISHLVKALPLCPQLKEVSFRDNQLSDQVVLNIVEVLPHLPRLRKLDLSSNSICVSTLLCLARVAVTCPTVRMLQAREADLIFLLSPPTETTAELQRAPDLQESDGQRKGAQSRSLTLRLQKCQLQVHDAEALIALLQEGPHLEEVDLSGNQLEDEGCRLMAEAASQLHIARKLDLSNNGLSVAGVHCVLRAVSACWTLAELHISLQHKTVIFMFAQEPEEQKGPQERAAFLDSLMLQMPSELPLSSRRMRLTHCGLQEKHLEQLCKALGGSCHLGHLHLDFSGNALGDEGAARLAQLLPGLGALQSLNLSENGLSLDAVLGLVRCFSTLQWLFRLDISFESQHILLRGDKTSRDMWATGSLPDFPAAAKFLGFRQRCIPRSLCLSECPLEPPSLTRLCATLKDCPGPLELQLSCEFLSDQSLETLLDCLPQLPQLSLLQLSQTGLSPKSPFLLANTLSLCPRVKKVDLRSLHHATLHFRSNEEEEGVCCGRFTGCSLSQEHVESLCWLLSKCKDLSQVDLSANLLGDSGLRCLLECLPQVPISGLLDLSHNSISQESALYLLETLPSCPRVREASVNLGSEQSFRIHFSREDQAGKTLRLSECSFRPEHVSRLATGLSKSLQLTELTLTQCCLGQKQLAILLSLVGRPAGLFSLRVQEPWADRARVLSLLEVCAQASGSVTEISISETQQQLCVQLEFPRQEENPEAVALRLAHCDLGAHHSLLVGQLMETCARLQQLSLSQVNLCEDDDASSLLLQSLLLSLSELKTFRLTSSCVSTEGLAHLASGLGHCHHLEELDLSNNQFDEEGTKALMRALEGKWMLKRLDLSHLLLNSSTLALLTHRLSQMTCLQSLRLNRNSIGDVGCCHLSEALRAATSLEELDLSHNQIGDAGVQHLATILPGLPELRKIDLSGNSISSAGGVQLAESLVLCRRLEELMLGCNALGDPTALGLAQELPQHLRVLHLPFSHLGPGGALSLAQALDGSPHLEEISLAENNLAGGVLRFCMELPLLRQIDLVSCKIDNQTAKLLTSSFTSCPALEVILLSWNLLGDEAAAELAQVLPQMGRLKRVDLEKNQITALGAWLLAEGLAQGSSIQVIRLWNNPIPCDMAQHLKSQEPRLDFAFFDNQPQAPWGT

What was measured:
[1] = molecular target: T1, IKKβ-KD (amino-terminal kinase domain construct of IKKβ, Flag-tagged) (UniProt O14920); assay: co-IP (anti-Flag beads) and Western blot (anti-HA), transfected 293T cells, FIG. 7E
T1 sequence (looked up): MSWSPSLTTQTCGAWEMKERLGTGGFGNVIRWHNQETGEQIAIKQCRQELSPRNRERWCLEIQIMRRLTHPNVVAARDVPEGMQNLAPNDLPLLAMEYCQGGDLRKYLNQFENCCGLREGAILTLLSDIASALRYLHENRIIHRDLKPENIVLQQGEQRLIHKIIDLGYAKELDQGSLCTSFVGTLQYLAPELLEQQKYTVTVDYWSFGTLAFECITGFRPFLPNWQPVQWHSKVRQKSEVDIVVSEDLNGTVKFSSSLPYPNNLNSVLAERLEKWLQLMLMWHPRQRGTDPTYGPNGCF

Flag-tagged IKKα = molecular target: T2, Flag-tagged IKKα (UniProt O15111); assay: co-IP (anti-HA beads) and Western blot (anti-Flag), transfected 293T cells
T2 sequence (looked up): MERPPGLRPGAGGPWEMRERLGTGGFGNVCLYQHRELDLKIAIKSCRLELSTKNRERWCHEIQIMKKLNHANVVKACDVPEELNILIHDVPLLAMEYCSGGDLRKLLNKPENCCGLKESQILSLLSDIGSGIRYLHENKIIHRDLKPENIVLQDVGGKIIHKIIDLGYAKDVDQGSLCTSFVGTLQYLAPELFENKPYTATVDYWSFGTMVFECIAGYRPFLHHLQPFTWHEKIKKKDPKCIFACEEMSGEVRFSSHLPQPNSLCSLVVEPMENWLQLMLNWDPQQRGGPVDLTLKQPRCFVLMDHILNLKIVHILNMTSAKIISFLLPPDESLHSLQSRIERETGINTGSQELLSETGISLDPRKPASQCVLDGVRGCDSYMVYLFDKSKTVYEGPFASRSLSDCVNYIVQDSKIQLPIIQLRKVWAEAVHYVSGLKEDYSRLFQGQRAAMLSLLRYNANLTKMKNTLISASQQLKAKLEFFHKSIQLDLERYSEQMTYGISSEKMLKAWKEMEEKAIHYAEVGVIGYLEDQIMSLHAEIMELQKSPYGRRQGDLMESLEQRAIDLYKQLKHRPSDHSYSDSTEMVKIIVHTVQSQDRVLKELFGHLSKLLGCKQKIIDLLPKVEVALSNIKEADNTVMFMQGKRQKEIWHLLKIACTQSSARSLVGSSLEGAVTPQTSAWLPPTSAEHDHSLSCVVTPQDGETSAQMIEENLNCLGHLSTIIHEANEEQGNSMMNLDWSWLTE

Flag-RIG-I = molecular target: T3, Flag-RIG-I (UniProt O95786); assay: as above
T3 sequence (looked up): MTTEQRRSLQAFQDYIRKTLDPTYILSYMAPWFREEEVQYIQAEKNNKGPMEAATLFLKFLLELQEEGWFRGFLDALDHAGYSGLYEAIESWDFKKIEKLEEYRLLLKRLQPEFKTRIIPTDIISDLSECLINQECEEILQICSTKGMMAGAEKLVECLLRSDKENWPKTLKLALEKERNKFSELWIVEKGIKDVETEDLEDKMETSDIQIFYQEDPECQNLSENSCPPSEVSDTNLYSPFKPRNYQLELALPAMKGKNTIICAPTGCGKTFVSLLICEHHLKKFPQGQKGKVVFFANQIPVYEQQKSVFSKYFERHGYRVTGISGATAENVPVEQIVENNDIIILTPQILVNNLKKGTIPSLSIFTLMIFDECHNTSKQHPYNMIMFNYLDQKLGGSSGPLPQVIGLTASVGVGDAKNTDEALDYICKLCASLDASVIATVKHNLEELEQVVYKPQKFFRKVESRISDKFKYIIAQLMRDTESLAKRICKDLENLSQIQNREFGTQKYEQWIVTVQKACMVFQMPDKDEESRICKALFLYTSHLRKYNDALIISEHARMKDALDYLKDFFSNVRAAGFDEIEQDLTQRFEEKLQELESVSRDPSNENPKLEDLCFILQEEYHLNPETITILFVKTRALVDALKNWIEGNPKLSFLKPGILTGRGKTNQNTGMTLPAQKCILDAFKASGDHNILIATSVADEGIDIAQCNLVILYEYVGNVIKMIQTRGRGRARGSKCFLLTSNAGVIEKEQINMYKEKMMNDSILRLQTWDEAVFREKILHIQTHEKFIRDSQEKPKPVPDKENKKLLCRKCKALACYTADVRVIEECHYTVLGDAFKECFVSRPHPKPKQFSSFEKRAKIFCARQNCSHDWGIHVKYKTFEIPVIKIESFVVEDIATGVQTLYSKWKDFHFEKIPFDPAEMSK

[2] = molecular target: T4, Flag-tagged IKKβ (full length) (UniProt O14920); assay: as above
T4 sequence (looked up): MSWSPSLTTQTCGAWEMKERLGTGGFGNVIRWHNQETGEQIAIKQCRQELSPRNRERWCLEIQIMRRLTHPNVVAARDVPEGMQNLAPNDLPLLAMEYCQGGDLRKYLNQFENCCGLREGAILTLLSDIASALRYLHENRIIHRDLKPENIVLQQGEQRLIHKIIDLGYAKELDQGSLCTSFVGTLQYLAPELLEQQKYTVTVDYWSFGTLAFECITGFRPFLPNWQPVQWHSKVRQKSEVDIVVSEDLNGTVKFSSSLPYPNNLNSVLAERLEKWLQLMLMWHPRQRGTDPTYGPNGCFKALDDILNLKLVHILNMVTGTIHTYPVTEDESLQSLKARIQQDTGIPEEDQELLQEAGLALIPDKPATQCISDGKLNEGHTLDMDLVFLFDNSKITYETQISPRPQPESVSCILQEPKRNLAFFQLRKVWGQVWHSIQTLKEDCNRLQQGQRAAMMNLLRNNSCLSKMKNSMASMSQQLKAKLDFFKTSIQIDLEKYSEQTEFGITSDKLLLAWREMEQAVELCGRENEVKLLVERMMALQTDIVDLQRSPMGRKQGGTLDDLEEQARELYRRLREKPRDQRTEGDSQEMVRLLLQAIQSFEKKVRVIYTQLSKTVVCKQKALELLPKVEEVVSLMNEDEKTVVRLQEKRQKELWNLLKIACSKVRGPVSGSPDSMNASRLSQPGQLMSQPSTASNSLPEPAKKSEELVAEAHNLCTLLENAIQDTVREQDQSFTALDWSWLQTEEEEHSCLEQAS

[3] = molecular target: T1, IKKβ-KD (amino-terminal kinase domain construct of IKKβ, Flag-tagged); assay: co-IP (anti-Flag beads) and Western blot (anti-HA), transfected 293T cells
[4] = molecular target: T4, Flag-tagged IKKβ (full length); assay: as above

Measured: binding

HA-tagged NLRC5 (human NLRC5, full length) (from UniProt Q86WI3 1-1866)
binds: all assays above
